Data taken from article PMC6733923.
Results are given in words; binding and its absence hold for the method and conditions named. In cells and extracts the contact can be indirect. Here binding means that the protein was enriched with, or labelled near, the bait; the list need not be complete.

By UniProt entry, the sequences of proteins in these tests, tags left out.
UniProt Q05397: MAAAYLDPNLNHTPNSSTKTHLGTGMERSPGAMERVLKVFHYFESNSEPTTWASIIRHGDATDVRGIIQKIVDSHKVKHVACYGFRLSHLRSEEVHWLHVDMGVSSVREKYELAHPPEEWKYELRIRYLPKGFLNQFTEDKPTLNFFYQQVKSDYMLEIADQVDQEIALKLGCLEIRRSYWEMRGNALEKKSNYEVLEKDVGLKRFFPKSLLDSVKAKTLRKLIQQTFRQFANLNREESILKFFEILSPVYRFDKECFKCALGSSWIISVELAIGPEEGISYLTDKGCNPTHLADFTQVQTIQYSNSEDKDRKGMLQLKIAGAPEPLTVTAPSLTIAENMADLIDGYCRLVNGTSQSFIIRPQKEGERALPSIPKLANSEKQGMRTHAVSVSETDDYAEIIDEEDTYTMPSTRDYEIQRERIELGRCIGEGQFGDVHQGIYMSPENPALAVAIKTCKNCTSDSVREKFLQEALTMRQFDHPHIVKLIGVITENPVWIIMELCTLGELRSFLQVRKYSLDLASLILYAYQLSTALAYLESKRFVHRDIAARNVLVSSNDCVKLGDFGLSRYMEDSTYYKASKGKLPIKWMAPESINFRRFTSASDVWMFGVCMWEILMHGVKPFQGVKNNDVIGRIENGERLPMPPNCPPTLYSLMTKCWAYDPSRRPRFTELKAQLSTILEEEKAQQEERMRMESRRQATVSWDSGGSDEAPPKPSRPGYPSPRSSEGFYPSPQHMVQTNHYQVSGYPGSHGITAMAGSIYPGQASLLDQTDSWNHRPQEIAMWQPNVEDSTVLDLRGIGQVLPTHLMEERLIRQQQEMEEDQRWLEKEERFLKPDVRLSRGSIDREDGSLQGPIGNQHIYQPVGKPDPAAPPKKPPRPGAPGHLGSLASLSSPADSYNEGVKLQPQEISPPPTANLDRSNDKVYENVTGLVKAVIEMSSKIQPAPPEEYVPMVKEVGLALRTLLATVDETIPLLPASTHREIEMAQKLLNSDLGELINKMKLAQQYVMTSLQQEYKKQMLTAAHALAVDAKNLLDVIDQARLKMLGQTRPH

B1: Plakophilin-3 (protein, UniProt Q9Y446 1-797)
chain: MQDGNFLLSALQPEAGVCSLALPSDLQLDRRGAEGPEAERLRAARVQEQVRARLLQLGQQPRHNGAAEPEPEAETARGTSRGQYHTLQAGFSSRSQGLSGDKTSGFRPIAKPAYSPASWSSRSAVDLSCSRRLSSAHNGGSAFGAAGYGGAQPTPPMPTRPVSFHERGGVGSRADYDTLSLRSLRLGPGGLDDRYSLVSEQLEPAATSTYRAFAYERQASSSSSRAGGLDWPEATEVSPSRTIRAPAVRTLQRFQSSHRSRGVGGAVPGAVLEPVARAPSVRSLSLSLADSGHLPDVHGFNSYGSHRTLQRLSSGFDDIDLPSAVKYLMASDPNLQVLGAAYIQHKCYSDAAAKKQARSLQAVPRLVKLFNHANQEVQRHATGAMRNLIYDNADNKLALVEENGIFELLRTLREQDDELRKNVTGILWNLSSSDHLKDRLARDTLEQLTDLVLSPLSGAGGPPLIQQNASEAEIFYNATGFLRNLSSASQATRQKMRECHGLVDALVTSINHALDAGKCEDKSVENAVCVLRNLSYRLYDEMPPSALQRLEGRGRRDLAGAPPGEVVGCFTPQSRRLRELPLAADALTFAEVSKDPKGLEWLWSPQIVGLYNRLLQRCELNRHTTEAAAGALQNITAGDRRWAGVLSRLALEQERILNPLLDRVRTADHHQLRSLTGLIRNLSRNARNKDEMSTKVVSHLIEKLPGSVGEKSPPAEVLVNIIAVLNNLVVASPIAARDLLYFDGLRKLIFIKKKRDSPDSEKSSRAASSLLANLWQYNKLHRDFRAKGYRKEDFLGP
B2: Something about silencing protein 10 (protein, UniProt Q9NQZ2 1-479)
chain: MVGRSRRRGAAKWAAVRAKAGPTLTDENGDDLGLPPSPGDTSYYQDQVDDFHEARSRAALAKGWNEVQSGDEEDGEEEEEEVLALDMDDEDDEDGGNAGEEEEEENADDDGGSSVQSEAEASVDPSLSWGQRKKLYYDTDYGSKSRGRQSQQEAEEEEREEEEEAQIIQRRLAQALQEDDFGVAWVEAFAKPVPQVDEAETRVVKDLAKVSVKEKLKMLRKESPELLELIEDLKVKLTEVKDELEPLLELVEQGIIPPGKGSQYLRTKYNLYLNYCSNISFYLILKARRVPAHGHPVIERLVTYRNLINKLSVVDQKLSSEIRHLLTLKDDAVKKELIPKAKSTKPKPKSVSKTSAAACAVTDLSDDSDFDEKAKLKYYKEIEDRQKLKRKKEENSTEEQALEDQNAKRAITYQIAKNRGLTPRRKKIDRNPRVKHREKFRRAKIRRRGQVREVRKEEQRYSGELSGIRAGVKKSIKLK
B3: Isoform 4 of Probable 28 S rRNA (cytosine(4447)-C(5))-methyltransferase (protein, UniProt P46087-4 1-845)
chain: MGRKLDPTKEKRGPGRKARKQKGAETELVRFLPAVSDENSKRLSSRARKRAAKRRLGSVEAPKTNKSPEAKPLPGKLPKGISAGAVQTAGKKGPQSLFNAPRGKKRPAPGSDEEEEEEDSEEDGMVNHGDLWGSEDDADTVDDYGADSNSEDEEEGEAAGVQWLGLGSLQPPPPGFKQFSCLSFPSSWDLQLLPIERAARKQKAREAAAGIQWSEEETEDEEEEKEVTPESGPPKVEEADGGLQINVDEEPFVLPPAGEMEQDAQAPDLQRVHKRIQDIVGILRDFGAQREEGRSRSEYLNRLKKDLAIYYSYGDFLLGKLMDLFPLSELVEFLEANEVPRPVTLRTNTLKTRRRDLAQALINRGVNLDPLGKWSKTGLVVYDSSVPIGATPEYLAGHYMLQGASSMLPVMALAPQEHERILDMCCAPGGKTSYMAQLMKNTGVILANDANAERLKSVVGNLHRLGVTNTIISHYDGRQFPKVVGGFDRVLLDAPCSGTGVISKDPAVKTNKDEKDILRCAHLQKELLLSAIDSVNATSKTGGYLVYCTCSITVEENEWVVDYALKKRNVRLVPTGLDFGQEGFTRFRERRFHPSLRSTRRFYPHTHNMDGFFIAKFKKFSNSIPQSQTGNSETATPTNVDLPQVIPKSENSSQPAKKAKGAAKTKQQLQKQQHPKKASFQKLNGISKGADSELSTVPSVTKTQASSSFQDSSQPAGKAEGIREPKVTGKLKQRSPKLQSSKKVAFLRQNAPPKGTDTQTPAVLSPSKTQATLKPKDHHQPLGRAKGVEKQQLPEQPFEKAAFQKQNDTPKGPQPPTVSPIRSSRPPPAKRKKSQSRGNSQLLLS
B4: Mitochondrial ribonuclease P protein 1 (protein, UniProt Q7L0Y3 40-403)
chain: MSSKIPAVTYPKNESTPPSEELELDKWKTTMKSSVQEECVSTISSSKDEDPLAATREFIEMWRLLGREVPEHITEEELKTLMECVSNTAKKKYLKYLYTKEKVKKARQIKKEMKAAAREEAKNIKLLETTEEDKQKNFLFLRLWDRNMDIAMGWKGAQAMQFGQPLVFDMAYENYMKRKELQNTVSQLLESEGWNRRNVDPFHIYFCNLKIDGALHRELVKRYQEKWDKLLLTSTEKSHVDLFPKDSIIYLTADSPNVMTTFRHDKVYVIGSFVDKSMQPGTSLAKAKRLNLATECLPLDKYLQWEIGNKNLTLDQMIRILLCLKNNGNWQEALQFVPKRKHTGFLEISQHSQEFINRLKKAKT
B5: ATP synthase subunit gamma, mitochondrial (protein, UniProt P36542-1 26-298)
chain: ATLKDITRRLKSIKNIQKITKSMKMVAAAKYARAERELKPARIYGLGSLALYEKADIKGPEDKKKHLLIGVSSDRGLCGAIHSSIAKQMKSEVATLTAAGKEVMLVGIGDKIRGILYRTHSDQFLVAFKEVGRKPPTFGDASVIALELLNSGYEFDEGSIIFNKFRSVISYKTEEKPIFSLNTVASADSMSIYDDIDADVLQNYQEYNLANIIYYSLKESTTSEQSARMTAMDNASKNASEMIDKLTLTFNRTRQAVITKELIEIISGAAALD
B6: Dolichyl-diphosphooligosaccharide–protein glycosyltransferase subunit 1 (protein, UniProt P04843 24-607)
chain: ASSEAPPLINEDVKRTVDLSSHLAKVTAEVVLAHLGGGSTSRATSFLLALEPELEARLAHLGVQVKGEDEEENNLEVRETKIKGKSGRFFTVKLPVALDPGAKISVIVETVYTHVLHPYPTQITQSEKQFVVFEGNHYFYSPYPTKTQTMRVKLASRNVESYTKLGNPTRSEDLLDYGPFRDVPAYSQDTFKVHYENNSPFLTITSMTRVIEVSHWGNIAVEENVDLKHTGAVLKGPFSRYDYQRQPDSGISSIRSFKTILPAAAQDVYYRDEIGNVSTSHLLILDDSVEMEIRPRFPLFGGWKTHYIVGYNLPSYEYLYNLGDQYALKMRFVDHVFDEQVIDSLTVKIILPEGAKNIEIDSPYEISRAPDELHYTYLDTFGRPVIVAYKKNLVEQHIQDIVVHYTFNKVLMLQEPLLVVAAFYILFFTVIIYVRLDFSITKDPAAEARMKVACITEQVLTLVNKRIGLYRHFDETVNRYKQSRDISTLNSGKKSLETEHKALTSEIALLQSRLKTEGSDLCDRVSEMQKLDAQVKELVLKSAVEAERLVAGKLKKDTYIENEKLISGKRQELVTKIDHILDAL
B7: ADP/ATP translocase 3 (protein, UniProt P12236 1-298)
chain: MTEQAISFAKDFLAGGIAAAISKTAVAPIERVKLLLQVQHASKQIAADKQYKGIVDCIVRIPKEQGVLSFWRGNLANVIRYFPTQALNFAFKDKYKQIFLGGVDKHTQFWRYFAGNLASGGAAGATSLCFVYPLDFARTRLAADVGKSGTEREFRGLGDCLVKITKSDGIRGLYQGFSVSVQGIIIYRAAYFGVYDTAKGMLPDPKNTHIVVSWMIAQTVTAVAGVVSYPFDTVRRRMMMQSGRKGADIMYTGTVDCWRKIFRDEGGKAFFKGAWSNVLRGMGGAFVLVLYDELKKVI
B8: Putative ribosome-binding factor A, mitochondrial (protein, UniProt Q8N0V3-1 42-343)
chain: KNWLKKFASKTKKKVWYESPSLGSHSTYKPSKLEFLMRSTSKKTRKEDHARLRALNGLLYKALTDLLCTPEVSQELYDLNVELSKVSLTPDFSACRAYWKTTLSAEQNAHMEAVLQRSAAHMRHLLMSQQTLRNVPPIVFVQDKGNAALAELDQLLAVADFGPRDERDNFVQNDFRDPDAPQPCGTTEPTTSSSLCGIDHEALNKQIMEYKRRKDKGLGGLVWQGQVAELTTQMKKGRKRAKPRLEQDSSLKSYLSGEEVEDDLDLVGAPEYECYAPDTEELEAERGGGRTEDGHSCGASRE

These binders were tested against Focal adhesion kinase 1 (human (endogenous in HCT-116)) (UniProt Q05397) (assay: affinity purification with mass spectrometry; anti-FAK polyclonal antibody and Protein A/G agarose on 1.5 mg HCT-116 total cell lysate, cells untreated (regular IP) or stimulated with 10 ng/ml EGF for 30 min; rabbit IgG as control; 1D SDS-PAGE, in-gel trypsin digestion, nano-LC-MS/MS; the proteins of Table 2 were found only with EGF …).

binding, binds:
B1, B2, B3, B4, B5, B6, B7, B8
